Experimental data from patent EP0454444A1, “Glutarimide derivatives and herbicides” (NISSAN CHEMICAL INDUSTRIES LTD., priority 1990, dated 1991).
The name of at least one read-out is uncertain.

How the values were obtained:
[1] = tested on: large crabgrass (Digitaria adscendens); assay: Herbicidal effect test by soil treatment; type: in vivo; conditions: three weeks after spraying
Description: (§1) In a plastic box of 15 cm length, 22 cm width and 6 cm depth, there was placed a sterilized dilvial soil, and seeds of barnyardgrass (Echinochloa crusgalli), large crabgrass (Digitaria adscendens), annual sedge (Cyperus microiria), black nightshade (Solanum nigrum L.), hairly galinosoga (Galinsoga ciliat), rorippa ssp. (Rorippa atrovirens), rice (Oryza sativa), corn (Zea mays), wheat (Triticum aestivum), soybean (Glysine max) and cotton (Gossypium herbaceum) were sown mixedly. After covering soil to about 1 cm over the seeds, herbicides were sprayed evenly on the soil surface to predetermined proportions of the active ingredient In spraying, the wettable powder, emulsifiable concentrate, dry flowable or flowable in the above formulation examples were diluted with water and sprayed over the entire surface by means of a small sprayer. Three weeks after spraying, the herbicidal effect on crop plants including rice, corn, wheat, soybean, cotton and various kinds of weeds were examined according to the judgement criteria shown below. Judgement criteria
(§2) The above growth control rates are determined by measuring the top fresh weights of the treated plants and those of the non-treated plants, and culculated from the following formula: [formula]

[2] = tested on: barnyardgrass (Echinochloa crusgalli); assay: Herbicidal effect test by soil treatment; type: in vivo; conditions: three weeks after spraying
Description: as §1, §2

SMILES	herbicidal effect, M (Digitaria adscendens) ([1]; application amount 1.6 g/a)	herbicidal effect, M (Digitaria adscendens) ([1]; application amount 3.2 g/a)	herbicidal effect, M (Digitaria adscendens) ([1]; application amount 6.3 g/a)	herbicidal effect, N (Echinochloa crusgalli) ([2]; application amount 1.6 g/a)	herbicidal effect, N (Echinochloa crusgalli) ([2]; application amount 3.2 g/a)	herbicidal effect, N (Echinochloa crusgalli) ([2]; application amount 6.3 g/a)	herbicidal effect, N (Echinochloa crusgalli) ([2]; application amount 0.4 g/a)	herbicidal effect, N (Echinochloa crusgalli) ([2]; application amount 0.8 g/a)
CCOC(=O)c1cc(N2C(=O)CC(c3ccccc3)CC2=O)c(F)cc1Cl [1-29]	1 (Growth control rates of 5 to 20%)	2 (Growth control rates of 20 to 40%)	3 (Growth control rates of 40 to 70%)	1 (Growth control rates of 5 to 20%)	2 (Growth control rates of 20 to 40%)	3 (Growth control rates of 40 to 70%)	–	–
C#CCN1C(=O)COc2ccc(N3C(=O)CC(C(F)(F)F)CC3=O)cc21 [1-24]	–	–	–	5 (Growth control,rates of more than 90% (almost completely withered))	–	–	3 (Growth control rates of 40 to 70%)	4 (Growth control rates of 70 to 90%)
